The nature of the series: general procedure: Fmoc solid-phase peptide synthesis. The settings on record: whole synthesis, 220 nm.

In the case of “H-KATFGCHDGYSLDGPEEIECTKLGNWSAMPSCKASCKVPVKKATVVYQGERVKIQEK-OH (cysteine pairing not given here)”, the “final HPLC purity” value came out at 95.23%.
